Test system: PANC-1 pancreatic carcinoma cell line
Test: PANC-1 cell line toxicity (Cell titer Glo viability)
Details: Homo sapiens, PANC-1, 72 h, read-out: IC50 (cell viability)
Procedure: The half maximal inhibition concentration (IC50) for each compound was determined by harvesting cells during the logarithmic growth period and then counting cell number using hemocytometer. The cell concentrations were adjusted to 5×10^4 cells/mL with respective culture medium. 30 μL of cell suspensions were added to three 384-well plates with the final cell density of 1.5×10^3 cells/well. Then, using a Biomek FX, test articles were serially diluted (10 mM top, 3× dilution intervals) along with a reference inhibitor (1 mM top, 3× dilution intervals) in acoustic grade Labcyte plate. Then, using an acoustic dispenser (Labcyte550), compounds were added as serially diluted to plate with cells: 90 nL of serially diluted compounds per well. 90 nL DMSO is added to control wells. Test plates were incubated for 72 h in the humidified incubator at 37° C. with 5% CO2. 25 μL of reconstituted Cell titer Glo reagent was added to each well. Each test plate was then incubated for 20 min at room temperature. Luminescence was then recorded using Synergy Neo2Multi-mode Reader.
In order to calculate intersect IC50, a dose-response curve was fitted using nonlinear regression model with a sigmoidal dose response.
The formula for calculating surviving rate is shown below, and the intersect IC50 was calculated according to the dose-response curve generated by the software: […]

CN[C@@H]1C[C@H]2O[C@@](C)([C@@H]1OC)n1c3ccccc3c3c4c(c5c6ccccc6n2c5c31)C(=O)NC4 [Staurosporine, staurosporine, reference compound]
IC50: ~80 nM

From patent US20250073184A1, “CANNABIGEROQUINONE COMPOUNDS, COMPOSITIONS INCLUDING SUCH COMPOUNDS, AND USES OF SUCH COMPOUNDS AND COMPOSITIONS” (Juva Life, Inc., priority 2021, published 2025)
